Assay [1] concerns S. aureus. Description: Broth microdilution AST. The format is cell-based, Staphylococcus aureus (ATCC 29213). The following applies: Staphylococcus aureus, read-out: MIC-Broth Microdilution. The protocol: (§1) To conduct an AST on the PP-based AST chip, bacteria were pre-activated inside an incubator for 15 minutes at 37° C. before use. At the beginning of a test, the bacteria are injected through Inlet 3; the injection of the bacteria was monitored under the fluorescence microscope (FIG. 24A). After the bacteria were inoculated into the cultivation chambers, antibiotic-doped media and media alone are injected into inlet 1 and inlet 2 at a rate of 1 μL/minute, respectively (FIG. 24B). The AST chip was then incubated on a thermostat platform at 37° C. for 2 hours. To assess AMR, the bacteria inside the culture chambers of the PP AST chip were flushed into the barcode cell sensor at a rate of 1 μL/minute. […] For comparison, AST was also performed using the traditional broth microdilution method as shown in FIG. 27; the MIC values of the bacteria were assessed as the lowest concentration of antibiotics with no visible growth of bacteria.
(§2) The broth microdilution (BMD) testing of the samples was performed exactly the same according to the approved standard from CLSI and the procedures described in Nature Protocol. […] To assess the MIC values for the samples, the microplates were examined visually and the lowest concentration of the antibiotic which prevents visible growth of the bacteria was recorded as the MIC value of that sample.

The test system of assay [2] is E. coli. As to the kind of experiment: Broth microdilution AST. The format is cell-based, Escherichia coli (ATCC 25922). The conditions noted are these: Escherichia coli, read-out: MIC-Broth Microdilution. The protocol:
as §1, §2
(Broth dilution looks for growth in wells or tubes with falling amounts of substance.)

In assay [3] the test system is E. coli. As to the kind of experiment: AST with the present barcode cell sensor (PP microfluidic AST chip). The assay is classed as cell-based, Escherichia coli (ATCC 25922). The conditions noted are these: Escherichia coli, read-out: MIC-"barcode" Chip. The protocol:
as §1
As said, the bacteria samples have been flushed into the “barcode” cell sensor after 2 hours incubation, the accumulated bacteria bars with different lengths will be formed. […] Thus, the MIC value of the samples can be assessed by looking at the point (in a specific concentration of a given antibiotic) of the bacterial growth with significant differences using the comparison of the log [slope] values. […]

Assay [4] relates to S. aureus. The assay is described as above. The following applies: Staphylococcus aureus, read-out: MIC-"barcode" Chip. The format is cell-based, Staphylococcus aureus (ATCC 29213). As to the method: To conduct an AST on the PP-based AST chip, bacteria were pre-activated inside an incubator for 15 minutes at 37° C. before use. At the beginning of a test, the bacteria are injected through Inlet 3; the injection of the bacteria was monitored under the fluorescence microscope (FIG. 24A). After the bacteria were inoculated into the cultivation chambers, antibiotic-doped media and media alone are injected into inlet 1 and inlet 2 at a rate of 1 μL/minute, respectively (FIG. 24B). The AST chip was then incubated on a thermostat platform at 37° C. for 2 hours. To assess AMR, the bacteria inside the culture chambers of the PP AST chip were flushed into the barcode cell sensor at a rate of 1 μL/minute. Gram staining agent was used during the flushing process to make bacteria inside the barcode cell sensor visible be captured by a cell phone camera. For comparison, AST was also performed using the traditional broth microdilution method as shown in FIG. 27; the MIC values of the bacteria were assessed as the lowest concentration of antibiotics with no visible growth of bacteria.

Values after ≈ are worked out from the molar mass of the structure shown.

Turning to `CC1(C)S[C@@H]2[C@H](NC(=O)[C@H](N)c3ccccc3)C(=O)N2[C@H]1C(=O)O` [Ampicillin], the MIC – broadly, the smallest concentration in the dilution series that meets the test's criterion for growth inhibition – was in the range of 1 to 2 mg/L (≈ 2.86 to 5.72 µM) in the assay with S. aureus [1], 2 to 4 mg/L (≈ 5.72 to 11.4 µM) in the assay on E. coli [2], 3 to 4 mg/L (≈ 8.59 to 11.4 µM) with E. coli [3] and 1.5 to 2 mg/L (≈ 4.29 to 5.72 µM) with S. aureus [4].

As for `CN(C)[C@@H]1C(O)=C(C(N)=O)C(=O)[C@@]2(O)C(O)=C3C(=O)c4c(O)cccc4[C@@](C)(O)[C@H]3C[C@@H]12` [Tetracycline, tetracycline], the MIC in the assay with E. coli [3] was in the range of 1.5 to 2 mg/L (≈ 3.38 to 4.5 µM).

The record behind these values is patent publication US20240240126A1, “Microfluidic Barcode-Like Cell Sensor For Microscope-Free Quantitative Detection Of Small Amount Of Cells” (Hong Kong Baptist University, priority 2021, published 2024).
